Data: PubChem BioAssay AID2685 (National Center for Advancing Translational Sciences (NCATS), 2010)
This is one part of the list. The main result of the screen is listed elsewhere. These columns were measured beside it and carry no call. Compounds called inactive in the main read-out are mostly missing here. Words in brackets tell the shape of the fitted curve; partial curves, single points and poor fits give uncertain potencies.

Experiment: qHTS Assay for Lipid Storage Modulators in Drosophila S3 Cells;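 on cell number change: cells counted by Cell Tracker Red CMTPX staining in the red channel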
Settings: BODIPY lipid droplet fluorescence, 18-24 h; for cell number change: measured here: cell count max response, cells fed with added oleic acid
In short: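 Laser-scanning cytometry quantifies lipid droplet accumulation (500–530 nm total intensity; droplet/cell object ratio) in oleic acid-fed (400 uM added) Drosophila S3 cells treated with a concentration series. 20 uM Triacsin C defined 100% inhibition.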

[1] = measured here: lipid fluorescence (Fed channel) AC50, cells fed with added oleic acid
[2] = measured here: cell number channel AC50, cells fed with added oleic acid

Row | Compound | cell number change | AC50 [1] | AC50 [2]
1 | O=C(CC1Oc2ccccc2NC1=O)NC1CC1 (centres undefined) | -13.6% | 29.1 µM [falling, single point] | –
2 | COc1ccccc1NC(=O)/C=C/c1ccc2c(c1)OCO2 | 10.3% | 0.517 µM [falling, single point] | –
3 | CC(C)CCN1C(=O)CC(NNC(=O)c2ccc(S(=O)(=O)N3CCCC3)cc2)C1=O (centres undefined) | 0.18% | 2.59 µM [falling, partial curve] | 1.64 µM [falling, partial curve]
4 | CCOC(=O)Cc1csc(NC(=O)CSc2nc3cccnc3n2CC)n1 | 32.5% | 2.31 µM [rising, full curve] | 5.8 µM [rising, full curve, poor fit]
5 | O=C(Nc1ccc2oc(-c3ccc4ccccc4c3)nc2c1)c1cccs1 | -16% | – | 1.16 µM [rising, partial curve]
6 | CCS(=O)(=O)c1ncc(Cl)c(C(=O)Nc2ccc(S(=O)(=O)N(C)c3ccccc3)cc2)n1 | 45.4% | – | 8.2 µM [rising, partial curve]
7 | Cc1ccc(/C=C/c2onc(C)c2S(=O)(=O)N2CCC(C(=O)N3CCN(C)CC3)CC2)cc1 | -6.27% | – | –
8 | CC(C)c1ccc(NS(=O)(=O)c2cn(C)c(=O)n(C)c2=O)cc1 | 3.92% | – | –
9 | CC(C)NCCCOc1ccc(Cl)cc1Br | -22.8% | – | –
10 | Cc1cc(C)n2[nH]c(=O)c(N=Nc3cccc(Cl)c3)c2n1 | -49.6% | 6.51 µM [falling, partial curve, poor fit] | 5.8 µM [falling, partial curve, poor fit]
11 | Cc1noc(C)c1CSCC(=O)N1CCN(c2ccc(F)cc2)CC1 | -26.7% | – | –
12 | CC(C)C(NCc1c(Cl)cccc1Cl)C(=O)O (centres undefined) | -24% | 4.11 µM [falling, full curve, poor fit] | 3.66 µM [falling, full curve, poor fit]
13 | O=C(NCC(=O)N1CCC(Cc2ccccc2)CC1)c1ccc(Cl)cc1 | -16.4% | 29.1 µM [rising, single point] | 0.116 µM [falling, full curve, poor fit]
14 | O=C(Cc1ccc(Cl)cc1)Nc1ccc(N2CCN(C(=O)c3ccco3)CC2)cc1 | -35.1% | – | 16.4 µM [falling, partial curve, poor fit]
15 | N#CCCn1cc(C(=O)O)c(-c2ccc3ccccc3c2)n1 | 23% | 29.1 µM [rising, single point] | –
16 | C=CCOc1ccc2ccccc2c1CNc1ncn[nH]1 | 205% | 0.517 µM [rising, full curve, poor fit] | 0.411 µM [rising, full curve]

Retrieved by structure from the list above, two records:
Row | Compound | cell number change | AC50 [1] | AC50 [2]
5 | O=C(Nc1ccc2oc(-c3ccc4ccccc4c3)nc2c1)c1cccs1 | -16% | – | 1.16 µM [rising, partial curve]
11 | Cc1noc(C)c1CSCC(=O)N1CCN(c2ccc(F)cc2)CC1 | -26.7% | – | –
